# Experimental data published in the supplement of paper PMC8728848.
# This is one part of the list.
# B1: GS7807I-bvu-563-22-563 (Bacteroides vulgatus) (protein)
# chain: IFSSCTDDFEKLNTSNIQVDPADLPFAAQCTEPMTYCYPPQQNMFQFWTNLTIDLYGGYFMTPNGNFTNGDMGENRGHSGGMYENYYLHIFNNTRRIIAQCDASGERGLSGVMRIVQAYGTLMTTDAYGPIPYSSILSGENEVYFEFDSQKDLYKAMLEDLSTAITDISAMGADEIAKLKSFDCWCNGDKDLWVKIANTMKLRMALRLSKRETEAGNAGMNLKAIATEAAQNTLATVNKDILIDKSLENEMWLMFNWGDCGFNANLVTIMSGTKDPRQPLYMTLNTGDIKNEAGTTTVAANSQYLGIRFASGLPAKPNSWGNFSGWIQGNNGSSYSMPLPIMKAAEAYFLLAEAKLRWDIGSESVKNLYENGIRVSMTNELAYRGAYAGIKEYPEGAVDAYINGTSTQIDYTDPIKAELSTPAVNKLSVKWDESASNEEKLERIITQKWLALFPLSTEGWAEQRRTGYPRFFPAFVNESNGAVNTEEGVRRVIYSSQAYDANAKGVEGGIKLLDEENSSKFGISGDKGGTHLWWDNADKGNF
# What was measured:
# Experiment in all cases: glycan array binding signal (z-score within array); higher = stronger binding
# Conditions in all cases: glycan notation: IUPAC condensed, linker removed
# [1] = biological target: Gal(b1-3)GlcNAc(b1-2)Man(a1-3)[Gal(b1-3)GlcNAc(b1-2)Man(a1-6)]Man(b1-4)GlcNAc(b1-4)[Fuc(a1-6)]GlcNAc
# Summary of the method: (§1)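 Glycan array binding is given as a within-array Z-score, which can be read as non-binding when negative. The arrays, 3228 of them, came from the Consortium for Functional Glycomics database and were retained only where the protein sequence was available. Z-scores were averaged across arrays of the same protein sequence at different concentrations or buffers and across linkers.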
# [2] = biological target: Gal(b1-3)GlcNAc(b1-2)Man(a1-3)[GlcNAc(b1-4)][Gal(b1-3)GlcNAc(b1-2)Man(a1-6)]Man(b1-4)GlcNAc(b1-4)GlcNAc
# Summary of the method: as §1
# [3] = biological target: Gal(b1-3)GlcNAc(b1-2)[Gal(b1-3)GlcNAc(b1-6)]Man(a1-6)[Gal(b1-3)GlcNAc(b1-2)Man(a1-3)]Man(b1-4)GlcNAc(b1-4)GlcNAc
# Summary of the method: as §1
# [4] = biological target: Gal(b1-3)GlcNAc(b1-3)Gal(b1-3)GlcNAc
# Summary of the method: as §1
# [5] = biological target: Gal(b1-3)GlcNAc(b1-3)Gal(b1-4)Glc
# Summary of the method: as §1
# [6] = biological target: Gal(b1-3)GlcNAc(b1-3)Gal(b1-4)GlcNAc
# Summary of the method: as §1
# [7] = biological target: Gal(b1-3)GlcNAc(b1-3)Gal(b1-4)GlcNAc(b1-2)Man(a1-3)[Gal(b1-3)GlcNAc(b1-3)Gal(b1-4)GlcNAc(b1-2)Man(a1-6)]Man(b1-4)GlcNAc(b1-4)GlcNAc
# Summary of the method: as §1
# [8] = biological target: Gal(b1-3)GlcNAc(b1-3)Gal(b1-4)GlcNAc(b1-2)[Gal(b1-3)GlcNAc(b1-3)Gal(b1-4)GlcNAc(b1-6)]Man(a1-6)[Gal(b1-3)GlcNAc(b1-3)Gal(b1-4)GlcNAc(b1-2)Man(a1-3)]Man(b1-4)GlcNAc(b1-4)[Fuc(a1-6)]GlcNAc
# Summary of the method: as §1
# [9] = biological target: Gal(b1-3)GlcNAc(b1-3)Gal(b1-4)GlcNAc(b1-3)Gal(b1-4)GlcNAc(b1-2)[Gal(b1-3)GlcNAc(b1-3)Gal(b1-4)GlcNAc(b1-3)Gal(b1-4)GlcNAc(b1-6)]Man(a1-6)[Gal(b1-3)GlcNAc(b1-3)Gal(b1-4)GlcNAc(b1-3)Gal(b1-4)GlcNAc(b1-2)Man(a1-3)]Man(b1-4)GlcNAc(b1-4)[Fuc(a1-6)]GlcNAc
# Summary of the method: as §1
# [10] = biological target: Gal(b1-3)GlcNAc(b1-3)Gal(b1-4)GlcNAc(b1-6)[Gal(b1-3)GlcNAc(b1-3)]Gal(b1-4)Glc
# Summary of the method: as §1
# [11] = biological target: Gal(b1-3)GlcNAc(b1-3)Gal(b1-4)[Fuc(a1-3)]GlcNAc
# Summary of the method: as §1
# [12] = biological target: Gal(b1-3)GlcNAc(b1-3)Gal(b1-4)[Fuc(a1-3)]GlcNAc(b1-6)[Gal(b1-3)GlcNAc(b1-3)]Gal(b1-4)Glc
# Summary of the method: as §1
# [13] = biological target: Gal(b1-3)GlcNAc(b1-3)GalNAc
# Summary of the method: as §1
# [14] = biological target: Gal(b1-3)GlcNAc(b1-6)Gal(b1-4)GlcNAc
# Summary of the method: as §1
# [15] = biological target: Gal(b1-3)GlcNAc(b1-6)GalNAc
# Summary of the method: as §1
# [16] = biological target: Gal(b1-3)GlcNAc(b1-6)[Gal(b1-3)]GalNAc
# Summary of the method: as §1
# Gal(b1-3)GlcNAc6S = biological target: Gal(b1-3)GlcNAc6S
# Summary of the method: as §1
# [17] = biological target: Gal(b1-3)[Fuc(a1-4)]GlcNAc
# Summary of the method: as §1
# [18] = biological target: Gal(b1-3)[Fuc(a1-4)]GlcNAc(b1-2)Man
# Summary of the method: as §1
# [19] = biological target: Gal(b1-3)[Fuc(a1-4)]GlcNAc(b1-2)Man(a1-3)[Gal(b1-3)[Fuc(a1-4)]GlcNAc(b1-2)Man(a1-6)]Man(b1-4)GlcNAc(b1-4)[Fuc(a1-6)]GlcNAc
# Summary of the method: as §1
# [20] = biological target: Gal(b1-3)[Fuc(a1-4)]GlcNAc(b1-3)Gal(b1-3)[Fuc(a1-4)]GlcNAc
# Summary of the method: as §1
# [21] = biological target: Gal(b1-3)[Fuc(a1-4)]GlcNAc(b1-3)Gal(b1-4)[Fuc(a1-3)]GlcNAc
# Summary of the method: as §1
# [22] = biological target: Gal(b1-3)[Fuc(a1-4)]GlcNAc(b1-6)GalNAc
# Summary of the method: as §1
# [23] = biological target: Gal(b1-3)[GlcNAc(b1-6)]GalNAc
# Summary of the method: as §1
# [24] = biological target: Gal(b1-3)[Neu5Ac(a2-6)]GalNAc
# Summary of the method: as §1
# [25] = biological target: Gal(b1-3)[Neu5Ac(a2-6)]GlcNAc(b1-4)Gal(b1-4)Glc
# Summary of the method: as §1
# [26] = biological target: Gal(b1-3)[Neu5Ac(b2-6)]GalNAc
# Summary of the method: as §1
# Gal(b1-4)Gal = biological target: Gal(b1-4)Gal
# Summary of the method: as §1
# [27] = biological target: Gal(b1-4)GalNAc(a1-3)[Fuc(a1-2)]Gal(b1-4)GlcNAc
# Summary of the method: as §1
# [28] = biological target: Gal(b1-4)GalNAc(b1-3)[Fuc(a1-2)]Gal(b1-4)GlcNAc
# Summary of the method: as §1
binder,measurement,setting,value
B1,glycan array binding signal (z-score),[1],0.362
same,glycan array binding signal (z-score),[2],3.75
same,glycan array binding signal (z-score),[3],0.978
same,glycan array binding signal (z-score),[4],-0.81
same,glycan array binding signal (z-score),[5],-1.02
same,glycan array binding signal (z-score),[6],0.449
same,glycan array binding signal (z-score),[7],2.15
same,glycan array binding signal (z-score),[8],-0.647
same,glycan array binding signal (z-score),[9],1.91
same,glycan array binding signal (z-score),[10],-0.329
same,glycan array binding signal (z-score),[11],-0.396
same,glycan array binding signal (z-score),[12],-0.309
same,glycan array binding signal (z-score),[13],1.2
same,glycan array binding signal (z-score),[14],-0.658
same,glycan array binding signal (z-score),[15],-0.545
same,glycan array binding signal (z-score),[16],0.482
same,glycan array binding signal (z-score),Gal(b1-3)GlcNAc6S,2.24
same,glycan array binding signal (z-score),[17],-0.08
same,glycan array binding signal (z-score),[18],0.116
same,glycan array binding signal (z-score),[19],2.12
same,glycan array binding signal (z-score),[20],-0.772
same,glycan array binding signal (z-score),[21],0.127
same,glycan array binding signal (z-score),[22],-0.343
same,glycan array binding signal (z-score),[23],-0.484
same,glycan array binding signal (z-score),[24],0.238
same,glycan array binding signal (z-score),[25],-0.151
same,glycan array binding signal (z-score),[26],-0.964
same,glycan array binding signal (z-score),Gal(b1-4)Gal,-0.487
same,glycan array binding signal (z-score),[27],0.28
same,glycan array binding signal (z-score),[28],-0.561

# Laid out differently: entries from further up
binder	measurement	setting	value
B1	glycan array binding signal (z-score)	[26]	-0.964
same	glycan array binding signal (z-score)	Gal(b1-4)Gal	-0.487
